ChEMBL document CHEMBL3392999 (J Med Chem, 2014)

Tested on: A2780
Assay: Cytotoxicity against human A2780 cells after 24 hrs by MTT assay
Type: functional, cell-based
Settings: A2780, 24 h
How it was run: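 Ovarian carcinoma A2780 and its P-glycoprotein-overexpressing MDR subline A2780AD were cultured in RPMI 1640 with 10% FCS, glutamine, antibiotics and 0.25 units/mL bovine insulin. Cytotoxicity was measured by a modified MTT assay. IC50 is 50% growth inhibition, averaged over three measurements. The resistance factor is A2780AD IC50 divided by A2780 IC50.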

## COc1cc2c(c(OC)c1OC)-c1ccc(OC)c(=O)cc1[C@@H](NC(C)=O)CC2 [COLCHICINE]
  IC50: 15 nM
